Test results published in the supplement of paper PMC10849652.
This is one part of the list.

Sequences of proteins named here, by UniProt entry; tags and fusion partners are left off. A change or cut given only in a name is not applied to a line headed by its entry.
UniProt Q9Y520: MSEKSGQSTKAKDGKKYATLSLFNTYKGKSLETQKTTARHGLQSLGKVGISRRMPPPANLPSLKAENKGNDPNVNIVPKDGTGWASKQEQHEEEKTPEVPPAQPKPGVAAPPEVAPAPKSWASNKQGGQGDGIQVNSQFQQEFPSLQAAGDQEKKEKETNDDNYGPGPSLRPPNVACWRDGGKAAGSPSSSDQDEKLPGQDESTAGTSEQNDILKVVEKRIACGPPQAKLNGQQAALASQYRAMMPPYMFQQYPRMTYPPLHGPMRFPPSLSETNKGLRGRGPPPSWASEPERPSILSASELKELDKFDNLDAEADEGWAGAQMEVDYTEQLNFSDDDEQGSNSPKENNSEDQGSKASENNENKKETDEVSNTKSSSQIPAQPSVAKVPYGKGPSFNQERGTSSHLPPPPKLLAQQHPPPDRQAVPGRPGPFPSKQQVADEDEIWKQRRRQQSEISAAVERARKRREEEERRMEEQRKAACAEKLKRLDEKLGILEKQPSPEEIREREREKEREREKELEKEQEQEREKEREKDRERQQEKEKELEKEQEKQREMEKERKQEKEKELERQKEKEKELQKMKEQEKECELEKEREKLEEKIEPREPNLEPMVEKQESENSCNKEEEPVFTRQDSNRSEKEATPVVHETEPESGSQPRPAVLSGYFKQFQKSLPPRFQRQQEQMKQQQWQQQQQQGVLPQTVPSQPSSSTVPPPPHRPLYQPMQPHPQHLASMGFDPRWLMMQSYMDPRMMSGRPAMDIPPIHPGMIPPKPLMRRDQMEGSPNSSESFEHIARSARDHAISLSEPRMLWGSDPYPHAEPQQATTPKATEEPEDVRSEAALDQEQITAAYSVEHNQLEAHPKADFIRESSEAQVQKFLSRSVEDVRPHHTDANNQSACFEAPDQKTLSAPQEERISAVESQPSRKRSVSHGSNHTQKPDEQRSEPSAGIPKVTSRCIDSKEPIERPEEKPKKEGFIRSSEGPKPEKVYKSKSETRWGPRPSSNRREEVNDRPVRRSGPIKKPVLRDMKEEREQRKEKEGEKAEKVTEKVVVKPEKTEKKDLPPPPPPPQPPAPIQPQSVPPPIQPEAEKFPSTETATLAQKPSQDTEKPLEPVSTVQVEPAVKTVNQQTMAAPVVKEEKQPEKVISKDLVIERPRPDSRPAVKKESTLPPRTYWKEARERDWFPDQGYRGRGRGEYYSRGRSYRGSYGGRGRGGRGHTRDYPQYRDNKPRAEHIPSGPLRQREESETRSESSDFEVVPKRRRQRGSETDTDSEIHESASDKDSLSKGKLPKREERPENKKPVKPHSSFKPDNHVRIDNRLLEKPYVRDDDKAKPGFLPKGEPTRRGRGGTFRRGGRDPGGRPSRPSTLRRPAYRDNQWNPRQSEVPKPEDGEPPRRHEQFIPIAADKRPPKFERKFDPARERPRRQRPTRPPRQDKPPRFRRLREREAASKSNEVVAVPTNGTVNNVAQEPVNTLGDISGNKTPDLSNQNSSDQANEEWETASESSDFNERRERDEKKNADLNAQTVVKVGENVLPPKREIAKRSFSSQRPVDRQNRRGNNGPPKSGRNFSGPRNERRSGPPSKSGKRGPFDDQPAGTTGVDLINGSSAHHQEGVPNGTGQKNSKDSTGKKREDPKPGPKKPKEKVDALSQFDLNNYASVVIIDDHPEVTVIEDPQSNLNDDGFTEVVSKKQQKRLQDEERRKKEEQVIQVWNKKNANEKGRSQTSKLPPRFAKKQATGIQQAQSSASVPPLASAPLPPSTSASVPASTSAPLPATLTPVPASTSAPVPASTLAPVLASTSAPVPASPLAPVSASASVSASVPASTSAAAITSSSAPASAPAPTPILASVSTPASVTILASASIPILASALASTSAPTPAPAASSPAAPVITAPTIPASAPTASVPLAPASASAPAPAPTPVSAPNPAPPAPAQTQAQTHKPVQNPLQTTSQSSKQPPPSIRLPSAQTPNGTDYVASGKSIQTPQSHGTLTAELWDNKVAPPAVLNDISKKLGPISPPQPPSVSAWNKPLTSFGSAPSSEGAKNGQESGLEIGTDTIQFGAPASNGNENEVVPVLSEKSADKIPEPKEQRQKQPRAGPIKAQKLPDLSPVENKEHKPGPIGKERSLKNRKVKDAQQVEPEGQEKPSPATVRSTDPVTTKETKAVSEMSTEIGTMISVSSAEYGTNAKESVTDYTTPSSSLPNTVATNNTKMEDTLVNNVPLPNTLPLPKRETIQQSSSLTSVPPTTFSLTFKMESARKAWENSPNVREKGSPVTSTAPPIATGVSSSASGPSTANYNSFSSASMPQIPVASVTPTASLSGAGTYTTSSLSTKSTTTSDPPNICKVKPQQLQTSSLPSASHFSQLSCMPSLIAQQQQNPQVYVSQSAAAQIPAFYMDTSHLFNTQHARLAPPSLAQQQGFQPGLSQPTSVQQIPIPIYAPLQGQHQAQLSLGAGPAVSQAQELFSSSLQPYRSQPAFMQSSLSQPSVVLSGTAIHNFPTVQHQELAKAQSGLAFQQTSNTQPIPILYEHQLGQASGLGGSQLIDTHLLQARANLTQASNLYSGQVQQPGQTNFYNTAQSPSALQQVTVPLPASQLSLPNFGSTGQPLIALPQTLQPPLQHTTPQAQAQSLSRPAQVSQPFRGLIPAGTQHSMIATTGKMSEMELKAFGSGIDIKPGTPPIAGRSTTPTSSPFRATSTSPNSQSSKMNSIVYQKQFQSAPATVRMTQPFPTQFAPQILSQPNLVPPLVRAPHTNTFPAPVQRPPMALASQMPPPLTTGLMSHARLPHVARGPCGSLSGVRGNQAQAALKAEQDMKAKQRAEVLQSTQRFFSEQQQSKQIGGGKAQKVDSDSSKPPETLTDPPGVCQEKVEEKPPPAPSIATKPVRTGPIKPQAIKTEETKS
UniProt Q5MIZ7: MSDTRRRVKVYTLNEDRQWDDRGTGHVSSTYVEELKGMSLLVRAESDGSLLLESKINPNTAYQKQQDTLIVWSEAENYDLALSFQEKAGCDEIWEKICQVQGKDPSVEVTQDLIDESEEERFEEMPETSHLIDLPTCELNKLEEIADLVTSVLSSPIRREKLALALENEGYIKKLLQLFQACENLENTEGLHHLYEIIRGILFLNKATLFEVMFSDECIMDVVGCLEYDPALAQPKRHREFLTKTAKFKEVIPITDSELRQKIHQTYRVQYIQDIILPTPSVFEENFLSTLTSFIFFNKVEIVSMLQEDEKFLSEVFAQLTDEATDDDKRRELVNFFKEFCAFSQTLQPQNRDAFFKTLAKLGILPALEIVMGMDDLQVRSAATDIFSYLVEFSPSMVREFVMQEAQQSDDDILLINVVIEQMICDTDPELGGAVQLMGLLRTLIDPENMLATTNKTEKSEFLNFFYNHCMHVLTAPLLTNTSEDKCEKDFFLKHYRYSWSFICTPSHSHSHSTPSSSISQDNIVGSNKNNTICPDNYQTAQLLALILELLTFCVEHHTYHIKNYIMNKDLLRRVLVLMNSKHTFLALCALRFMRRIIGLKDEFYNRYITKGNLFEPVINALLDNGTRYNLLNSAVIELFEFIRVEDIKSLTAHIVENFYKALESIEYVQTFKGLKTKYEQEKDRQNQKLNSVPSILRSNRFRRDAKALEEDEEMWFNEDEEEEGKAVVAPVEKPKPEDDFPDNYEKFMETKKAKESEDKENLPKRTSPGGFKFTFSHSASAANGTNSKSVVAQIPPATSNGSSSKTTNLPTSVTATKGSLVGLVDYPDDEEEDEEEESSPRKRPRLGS
UniProt Q9NVM4: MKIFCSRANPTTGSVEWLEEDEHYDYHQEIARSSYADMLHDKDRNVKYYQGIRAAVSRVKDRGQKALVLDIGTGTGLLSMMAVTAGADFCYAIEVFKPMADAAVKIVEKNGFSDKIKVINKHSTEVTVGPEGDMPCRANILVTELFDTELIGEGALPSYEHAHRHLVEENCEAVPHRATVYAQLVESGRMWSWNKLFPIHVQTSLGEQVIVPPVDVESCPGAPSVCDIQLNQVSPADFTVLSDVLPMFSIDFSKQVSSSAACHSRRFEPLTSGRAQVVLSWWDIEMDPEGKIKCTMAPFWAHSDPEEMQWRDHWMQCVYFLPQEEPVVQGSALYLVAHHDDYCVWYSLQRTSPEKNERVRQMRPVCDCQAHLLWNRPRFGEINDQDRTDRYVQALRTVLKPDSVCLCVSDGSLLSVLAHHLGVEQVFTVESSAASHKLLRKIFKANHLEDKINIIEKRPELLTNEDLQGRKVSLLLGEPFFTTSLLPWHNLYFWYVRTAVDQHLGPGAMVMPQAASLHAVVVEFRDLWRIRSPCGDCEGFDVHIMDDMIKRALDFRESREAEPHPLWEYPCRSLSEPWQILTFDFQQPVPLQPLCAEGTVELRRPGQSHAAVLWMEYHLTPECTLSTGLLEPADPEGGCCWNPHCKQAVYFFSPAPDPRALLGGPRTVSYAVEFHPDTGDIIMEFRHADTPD
UniProt P49643: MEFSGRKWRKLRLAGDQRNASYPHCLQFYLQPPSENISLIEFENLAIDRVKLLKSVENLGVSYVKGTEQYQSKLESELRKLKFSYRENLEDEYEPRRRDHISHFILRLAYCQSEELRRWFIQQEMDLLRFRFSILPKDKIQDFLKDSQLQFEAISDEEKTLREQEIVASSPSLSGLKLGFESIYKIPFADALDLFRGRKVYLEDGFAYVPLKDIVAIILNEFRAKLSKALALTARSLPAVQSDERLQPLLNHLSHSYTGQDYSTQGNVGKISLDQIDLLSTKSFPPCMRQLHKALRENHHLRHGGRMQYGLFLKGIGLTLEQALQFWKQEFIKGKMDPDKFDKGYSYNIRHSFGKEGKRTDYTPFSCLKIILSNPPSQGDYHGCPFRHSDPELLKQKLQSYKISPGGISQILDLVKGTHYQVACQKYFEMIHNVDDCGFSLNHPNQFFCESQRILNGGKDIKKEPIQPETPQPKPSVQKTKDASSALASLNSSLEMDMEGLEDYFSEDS
UniProt K7ELL7: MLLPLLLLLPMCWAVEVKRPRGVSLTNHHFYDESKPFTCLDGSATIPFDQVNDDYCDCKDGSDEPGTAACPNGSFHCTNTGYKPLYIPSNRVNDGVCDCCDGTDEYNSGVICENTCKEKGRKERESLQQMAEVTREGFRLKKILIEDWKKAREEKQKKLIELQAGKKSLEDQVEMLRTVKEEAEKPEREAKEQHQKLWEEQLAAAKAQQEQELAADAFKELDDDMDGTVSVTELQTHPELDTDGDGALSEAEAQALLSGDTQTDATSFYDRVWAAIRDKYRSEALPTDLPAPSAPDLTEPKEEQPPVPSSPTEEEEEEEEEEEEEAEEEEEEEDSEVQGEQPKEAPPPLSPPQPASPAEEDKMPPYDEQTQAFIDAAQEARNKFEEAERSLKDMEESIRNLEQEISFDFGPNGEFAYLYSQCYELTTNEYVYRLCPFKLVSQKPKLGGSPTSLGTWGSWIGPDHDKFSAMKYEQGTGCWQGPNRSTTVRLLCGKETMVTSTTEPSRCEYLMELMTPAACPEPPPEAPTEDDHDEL
UniProt Q96A00: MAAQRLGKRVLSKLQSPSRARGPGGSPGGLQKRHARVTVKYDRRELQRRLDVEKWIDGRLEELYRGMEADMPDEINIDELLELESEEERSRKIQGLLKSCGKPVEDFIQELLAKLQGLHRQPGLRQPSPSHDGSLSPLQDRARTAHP
UniProt P14222: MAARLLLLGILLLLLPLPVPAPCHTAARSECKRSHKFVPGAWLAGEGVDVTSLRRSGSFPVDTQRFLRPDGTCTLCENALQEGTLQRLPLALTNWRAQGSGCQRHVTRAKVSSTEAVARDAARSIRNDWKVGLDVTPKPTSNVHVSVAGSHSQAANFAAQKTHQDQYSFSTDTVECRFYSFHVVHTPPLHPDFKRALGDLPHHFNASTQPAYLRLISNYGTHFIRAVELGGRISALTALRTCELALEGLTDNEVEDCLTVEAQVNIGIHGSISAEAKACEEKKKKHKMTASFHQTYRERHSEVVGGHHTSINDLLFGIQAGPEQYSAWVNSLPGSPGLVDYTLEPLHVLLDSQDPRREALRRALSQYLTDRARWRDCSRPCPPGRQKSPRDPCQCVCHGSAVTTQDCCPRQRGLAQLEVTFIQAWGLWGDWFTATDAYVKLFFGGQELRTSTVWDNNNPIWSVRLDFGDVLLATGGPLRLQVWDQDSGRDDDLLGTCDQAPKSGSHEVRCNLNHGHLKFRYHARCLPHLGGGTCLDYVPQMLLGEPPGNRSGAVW
UniProt P07478, whole entry, looked up: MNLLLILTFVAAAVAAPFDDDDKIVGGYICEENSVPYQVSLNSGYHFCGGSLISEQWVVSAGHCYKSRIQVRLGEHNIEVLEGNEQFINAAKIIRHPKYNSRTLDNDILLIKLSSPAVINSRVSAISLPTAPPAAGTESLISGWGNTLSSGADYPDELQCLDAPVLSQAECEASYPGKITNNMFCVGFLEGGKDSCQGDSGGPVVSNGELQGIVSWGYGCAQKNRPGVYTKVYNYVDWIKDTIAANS

How the values were obtained:
Experiment in all cases: log2 fold change, soluble protein after heating vs DMSO (PISA); higher = thermal stabilisation; K562 cells, 10 uM, 30 min; active = over 0.2 and 3.5 SD of the protein, either way, in both replicates (recomputed)
[1] = compound: CC1=C(C=C(C=C1)NC(=O)C2=CC(=CC=C2)C(C)(C)C#N)NC3=CC4=C(C=C3)N=CN(C4=O)C
How it was run: (§1)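 Thermal stability values are relative to control samples and come from duplicates. They are expressed as log2 fold changes. For measurement, K562 cells (2×10^6 cells/mL) received 10 μM compound for 30 min, and aliquots were heated for 3 min over 48°C-58°C, pooled, and extracted at 4°C in PBS with 0.5% NP-40. Soluble protein, the supernatant after 21,000xg for 90 min, was quantified by TMTpro 16plex LC-MS/MS with equalised channel sums.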

[2] = compound: CC1=C(C=C(C=C1)NC(=O)C2=CC(=CC=C2)N(C)C)NC(=O)C3=CC=C(C=C3)O
How it was run: as §1

[3] = compound: CC1=CC=C(C=C1)SC2=C3C=C(SC3=CN=C2)C(=O)N
How it was run: as §1

[4] = compound: CC1=NC(=CC=C1)C2=C(N=C(N2)C(C)(C)C)C3=CC4=NC=CN=C4C=C3
How it was run: as §1

[5] = compound: CCCCN(Cc1ccc(C(=O)NO)cc1)C(=O)Nc1ccccc1 [Nexturastat A]
How it was run: as §1

[6] = compound: CCCS(=O)(=O)Nc1ccc(F)c(C(=O)c2c[nH]c3ncc(-c4ccc(Cl)cc4)cc23)c1F [vemurafenib]
How it was run: as §1

[7] = compound: CCCS(=O)(=O)Nc1ccc(F)c(C(=O)c2c[nH]c3ncc(Cl)cc23)c1F
How it was run: as §1

[8] = compound: CCCc1cc(C)[nH]c(=O)c1CNC(=O)c1cc(-c2ccnc(N3CCN(C)CC3)c2)cc2c1cnn2C(C)C
How it was run: as §1

[9] = compound: CCN(CC)Cc1ccc2cc(COC(=O)Nc3ccc(C(=O)NO)cc3)ccc2c1 [givinostat]
How it was run: as §1

[10] = compound: CCN(CCCOc1ccc2c(Nc3cc(CC(=O)Nc4cccc(F)c4)[nH]n3)ncnc2c1)CCOP(=O)(O)O [barasertib]
How it was run: as §1

[11] = compound: CC[C@@H]1C(=O)N(C)c2cnc(Nc3ccc(C(=O)NC4CCN(C)CC4)cc3OC)nc2N1C1CCCC1
How it was run: as §1

[12] = compound: CC[C@@H]1C(=O)N(C)c2cnc(Nc3ccc(C(=O)N[C@H]4CC[C@H](N5CCN(CC6CC6)CC5)CC4)cc3OC)nc2N1C(C)C [volasertib]
How it was run: as §1

[13] = compound: CC[C@H](C)N1C=C(C2=C(C=C(C=C21)C3=CN=C(C=C3)N4CCNCC4)C(=O)NCC5=C(C=C(NC5=O)C)C)C
How it was run: as §1

[14] = compound: CC[C@H](C)[C@@H](C(=O)N[C@@H]([C@@H](C)O)C(=O)N[C@@H](CC(C)C)C(=O)[C@]1(CO1)C)NC(=O)[C@H]([C@@H](C)CC)N(C)C(=O)C [epoxomicin]
How it was run: as §1

[15] = compound: CCn1cc(-c2ccnc3[nH]c(-c4cccc(CN(C)C)c4)cc23)c(-c2ccc(NC(=O)N(C)C)cc2)n1
How it was run: as §1

[16] = compound: CN(C)CC(=O)Nc1ccc2[nH]c(=O)c3ccccc3c2c1
How it was run: as §1

[17] = compound: CN1C2=C(C3=C1C(=O)N(N=C3)CC4=CC(=CC=C4)N)SC(=C2)S(=O)C
How it was run: as §1

[18] = compound: CN1CCC(CNc2ccc3ncc(-c4cccc(OC(F)(F)F)c4)n3n2)CC1
How it was run: as §1

[19] = compound: CCn1c(C(=O)N(C2CC2)C2CC2)cc2c3c(ncn3C)c(Nc3cc(C)n(C)n3)nc21
How it was run: as §1

[20] = compound: CN(CCOC1=CC=C(C=C1)C[C@H]2C(=O)NC(=O)S2)C3=CC=CC=N3 (racemic) [rosiglitazone]
How it was run: as §1

Measured: log2 fold change

PRKACB isoform 2 (UniProt P22694)
inactive: [1] -0.014 | [2] 0.015 | [3] 0.011 | [4] 0.077 | [5] 0.059 | [6] -0.007 | [7] 0.031 | [8] -0.129 | [9] -0.024 | [10] 0.036 | [11] -0.025 | [12] -0.031 | [13] 0.004 | [14] -0.033 | [15] -0.009 | [16] -0.048 | [17] -0.042 | [18] -0.022

PRRC2C isoform 7 (UniProt Q9Y520)
inactive: [1] -0.02 | [2] 0.009 | [3] -0.059 | [4] -0.079 | [5] 0.159 | [6] -0.084 | [7] -0.076 | [8] 0.085 | [9] 0.018 | [10] -0.096 | [11] 0.165 | [12] 0.215 | [13] -0.017 | [14] -0.133 | [19] -0.015 | [15] 0.16 | [16] -0.068 | [20] -0.088 | [17] 0.178 | [18] 0.235

PPP1R12A (UniProt O14974)
active: [12] -0.468 | [18] -0.536
inactive: [1] -0.012 | [2] -0.036 | [3] 0.046 | [4] 0.045 | [5] 0.001 | [6] 0.015 | [7] 0.073 | [8] -0.032 | [9] 0.048 | [10] 0.066 | [11] -0.136 | [13] 0.066 | [14] 0.067 | [15] -0.229 | [16] 0 | [17] -0.016

PPP4R3B (UniProt Q5MIZ7)
inactive: [1] 0.006 | [2] 0.014 | [3] 0.008 | [4] 0.024 | [5] -0.063 | [6] 0.017 | [7] 0.009 | [8] -0.017 | [9] 0.049 | [10] 0.029 | [11] -0.052 | [13] 0.05 | [14] -0.011 | [15] -0.074 | [16] -0.001 | [17] -0.074 | [18] -0.15
active: [12] -0.284

Two neighbouring records already listed:
PRKACB isoform 2 (UniProt P22694)
inactive: [1] -0.014 | [2] 0.015 | [3] 0.011 | [4] 0.077 | [5] 0.059 | [6] -0.007 | [7] 0.031 | [8] -0.129 | [9] -0.024 | [10] 0.036 | [11] -0.025 | [12] -0.031 | [13] 0.004 | [14] -0.033 | [15] -0.009 | [16] -0.048 | [17] -0.042 | [18] -0.022

PRRC2C isoform 7 (UniProt Q9Y520)
inactive: [1] -0.02 | [2] 0.009 | [3] -0.059 | [4] -0.079 | [5] 0.159 | [6] -0.084 | [7] -0.076 | [8] 0.085 | [9] 0.018 | [10] -0.096 | [11] 0.165 | [12] 0.215 | [13] -0.017 | [14] -0.133 | [19] -0.015 | [15] 0.16 | [16] -0.068 | [20] -0.088 | [17] 0.178 | [18] 0.235

Next part

PRMT7 (UniProt Q9NVM4)
active: [12] -0.461
inactive: [1] 0.056 | [2] -0.197 | [3] 0.065 | [4] -0.055 | [5] -0.003 | [6] -0.03 | [7] 0.145 | [8] -0.014 | [9] 0.042 | [10] 0.023 | [11] -0.074 | [13] 0.04 | [14] -0.036 | [15] -0.077 | [16] 0.032 | [17] 0.022 | [18] -0.176

PRPF38B (UniProt Q5VTL8)
inactive: [1] -0.001 | [2] 0.001 | [3] -0.012 | [4] 0.015 | [5] -0.011 | [6] 0.043 | [7] 0.042 | [8] -0.006 | [9] 0.007 | [10] 0.012 | [11] -0.152 | [12] -0.231 | [13] 0.015 | [14] -0.002 | [15] -0.02 | [16] -0.01 | [17] 0.018 | [18] -0.073

PRMT8 (UniProt Q9NR22)
inactive: [1] 0.285 | [2] -0.033 | [3] 0.097 | [4] 0.016 | [5] -0.125 | [6] 0.028 | [7] 0.156 | [8] -0.009 | [9] -0.043 | [10] 0.031 | [11] 0.019 | [12] -0.074 | [13] 0.011 | [14] 0.017 | [15] -0.087 | [16] -0.022 | [17] -0.117 | [18] -0.009

PRPSAP2 (UniProt O60256)
inactive: [1] -0.141 | [2] -0.002 | [3] -0.021 | [4] -0.07 | [5] -0.083 | [6] -0.022 | [7] -0.019 | [8] -0.026 | [9] -0.034 | [10] -0.005 | [11] 0.07 | [12] 0.056 | [13] -0.043 | [14] -0.008 | [15] -0.088 | [16] -0.02 | [17] -0.041 | [18] 0.159

PRKAG1 isoform 3 (UniProt P54619)
active: [18] -0.299
inactive: [1] -0.042 | [2] -0.006 | [3] 0.007 | [4] 0.037 | [5] -0.01 | [6] 0.026 | [7] 0.002 | [8] -0.026 | [9] 0.014 | [10] 0.013 | [11] -0.018 | [12] -0.207 | [13] 0.048 | [14] -0.024 | [15] -0.033 | [16] -0.015 | [17] -0.009

PPP2R5C isoform 4 (UniProt Q13362)
inactive: [1] -0.016 | [2] 0.004 | [3] 0.014 | [4] -0.064 | [5] 0.016 | [6] 0.074 | [7] -0.004 | [8] -0.027 | [9] -0.001 | [10] 0.057 | [11] -0.069 | [12] -0.127 | [13] 0.042 | [14] 0.19 | [15] -0.099 | [16] -0.048 | [17] -0.003 | [18] -0.11

PPT2 isoform 3 (UniProt Q9UMR5)
inactive: [1] -0.064 | [2] -0.002 | [3] 0.025 | [4] 0.078 | [5] 0 | [6] -0.001 | [7] 0.052 | [8] 0.002 | [9] 0.041 | [10] -0.017 | [13] -0.006 | [14] -0.021 | [15] 0.206 | [16] -0.068 | [17] -0.051
active: [11] -0.57 | [12] -0.87 | [18] -0.682

PRPF40A (UniProt O75400)
inactive: [1] 0.016 | [2] 0 | [3] 0.022 | [4] 0.018 | [5] -0.051 | [6] 0.109 | [7] 0.02 | [8] 0.073 | [9] 0.156 | [10] 0 | [11] -0.036 | [12] -0.216 | [13] 0.089 | [14] 0.022 | [15] 0.065 | [16] 0.036 | [17] 0.074 | [18] -0.04

PRIM2 (UniProt P49643)
active: [12] -0.285
inactive: [1] -0.028 | [2] -0.018 | [3] -0.019 | [4] 0.054 | [5] 0.017 | [6] 0.054 | [7] 0.03 | [8] 0.023 | [9] 0.085 | [10] 0.08 | [11] -0.119 | [13] 0.147 | [14] 0.02 | [15] -0.07 | [16] 0.076 | [17] 0.013 | [18] -0.131

PRKCSH (UniProt K7ELL7)
inactive: [1] -0.031 | [2] 0.045 | [3] 0.057 | [4] -0.024 | [5] 0.019 | [6] 0.003 | [7] 0.028 | [8] -0.284 | [9] 0.159 | [10] -0.042 | [11] 0.084 | [12] 0.051 | [13] 0.008 | [14] -0.018 | [19] 0.031 | [16] -0.123 | [20] -0.015 | [17] 0.015

PPP1R14A (UniProt Q96A00)
inactive: [1] -0.002 | [2] -0.04 | [3] 0.004 | [4] 0.051 | [5] -0.006 | [6] -0.005 | [7] -0.054 | [8] 0.062 | [9] -0.004 | [10] 0.013 | [11] 0.002 | [12] 0.051 | [13] 0 | [14] 0.058 | [15] -0.067 | [16] -0.04 | [17] -0.027 | [18] -0.091

PRKAR2B (UniProt P31323)
inactive: [1] 0.04 | [2] 0.017 | [3] 0.038 | [4] 0.022 | [5] 0.046 | [6] 0.033 | [7] 0.052 | [8] -0.014 | [9] 0 | [10] 0.047 | [11] -0.037 | [12] 0.053 | [13] 0.056 | [14] 0.025 | [15] -0.023 | [16] -0.008 | [17] 0.005
active: [18] -0.495

PRF1 (UniProt P14222)
inactive: [1] 0.07 | [3] 0.051 | [5] -0.004 | [7] -0.113 | [9] 0.182 | [10] 0.215 | [12] 0.041 | [14] 0.113 | [19] -0.073 | [20] 0.108

PRCP (UniProt P42785)
active: [11] -0.265 | [12] -0.291 | [18] -0.389
inactive: [1] 0 | [2] 0.061 | [3] 0.022 | [4] -0.002 | [5] 0.072 | [6] 0.008 | [7] 0.01 | [8] -0.082 | [9] 0.035 | [10] -0.008 | [13] -0.024 | [14] -0.002 | [15] 0.008 | [16] 0.014 | [17] 0.024

PRSS2 (UniProt P07478)
inactive: [1] 0.034 | [3] -0.047 | [4] -0.001 | [5] 0.12 | [6] -0.171 | [7] -0.054 | [9] 0.079 | [10] 0.009 | [12] 0.004 | [13] 0.025 | [14] 0.079 | [19] 0.113 | [16] -0.171 | [20] 0.062 | [17] 0.031
